The results in this text go back to PMC9943068.

Residue numbers refer to the chain shown, from its start. Results are given in words; binding and its absence hold for the method and conditions named. In cells and extracts the contact can be indirect. For some of these results: A result given as binding can be weak or reduced; the word gives no strength. For some of these results: Sequences can lack the tags named with a protein.

Test [1] addresses T1, PAF15, endogenous Xenopus, non-ubiquitylated (Xenopus laevis (endogenous in egg extracts)) (UniProt Q5HZL4).
T1 sequence: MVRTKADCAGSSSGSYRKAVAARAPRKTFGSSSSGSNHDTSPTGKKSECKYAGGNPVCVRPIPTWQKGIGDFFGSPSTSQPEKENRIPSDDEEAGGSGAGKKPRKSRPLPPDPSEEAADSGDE
Kind of test: co-IP; antibodies on Protein A agarose incubated with Xenopus egg extracts 2 hr at 4°C; endogenous proteins; washed with CPB, 2% sucrose, 0.1% Triton X-100; immunoblotting. In general terms: In western blotting, separated proteins are transferred to a membrane and probed.

The target of test [2] is T2, GST-PAF15 KxxxK mutant (K101A/K105A; KA) (Xenopus) (UniProt Q5HZL4).
T2 sequence: T1 sequence with K101A, K105A
The test is described as follows: pull-down; GST or GST-PAF15 proteins immobilized on Glutathione Sepharose 4B, incubated with interphase egg extracts 2 hr at 4°C; washed with CPB, 2% sucrose, 0.1% Triton X-100; immunoblotting; only the target purified.

Test [3] addresses T3, GST-PAF15 P/AxxS mutant (S79A/S97A; SA) (Xenopus) (UniProt Q5HZL4).
T3 sequence: T1 sequence with S79A, S97A
The description is as above.

Test [4] concerns the target T4, GST-PAF15 triple mutant (SAKA) (Xenopus) (UniProt Q5HZL4).
T4 sequence: T1 sequence with S79A, S97A, K101A, K105A
The description is as above.

Test [5] has as its target T5, GST-PAF15 wild-type (Xenopus PAF15) (Xenopus) (UniProt Q5HZL4).
T5 sequence: T1 sequence
Described as above.

Test [6] has as its target USP7 (Ubiquitin-Specific Protease 7), endogenous Xenopus (Xenopus laevis (endogenous in egg extracts)). Kind of test: co-IP; antibodies on Protein A agarose incubated with Xenopus egg extracts 2 hr at 4°C; endogenous proteins; washed with CPB, 2% sucrose, 0.1% Triton X-100; immunoblotting.
Test [7] deals with rUSP7-3xFLAG 3A (D780A/E781A/D786A) (Xenopus). The test is described as follows: pull-down; rUSP7-3xFLAG proteins bound to anti-FLAG M2 resin, incubated with Xenopus egg extracts diluted fivefold in CPB with 2% sucrose, 2 hr at 4°C; immunoblotting; only the target purified.
Test [8] has as its target rUSP7-3xFLAG TRAF domain (residues 1-208) (Xenopus). The description is as above.
The target of test [9] is rUSP7-3xFLAG UBL1-5 domain (residues 583-1124) (Xenopus). Described as above.
Test [10] addresses rUSP7-3xFLAG W167A (Xenopus). Described as above.
Test [11] addresses rUSP7-3xFLAG catalytic domain (residues 209-582) (Xenopus). The test is described as above.
Test [12] addresses rUSP7-3xFLAG wild type (Xenopus USP7) (Xenopus). Described as above.
The target in test [13] is rUSP7-3xFLAG with the UBL domain deleted (Xenopus). The description is as above.

For “USP7 (Ubiquitin-Specific Protease 7), endogenous Xenopus (enzyme)”, the binding result in test [1] is recorded as “binds”; in test [2] it was “binds”; in test [3], “binds”; in test [4], “no binding”; in [5] it was “binds”.

B1: PAF15, endogenous Xenopus, non-ubiquitylated (protein, UniProt Q5HZL4 1-123)
chain: T1 sequence
On to B1, for which the binding entry is “binds” in [6]; “binds” in test [7]; “binds” in [8]; “no binding” in test [9]; “no binding” in [10]; “no binding” in test [11]. In addition, the binding result in test [12] and in test [13] was “binds” throughout.
